This note sets out measurements from patent publication US6583179B2, “Substituted aminoalkylamide derivatives as antagonists of follicle stimulating hormone” (Ortho-McNeil Pharmaceutical, Inc., priority 1999, dated 2003).

Amino acid sequences for entries named in this document (tags omitted). Residues count along the entry.
UniProt P23945, 18-695 limits assumed: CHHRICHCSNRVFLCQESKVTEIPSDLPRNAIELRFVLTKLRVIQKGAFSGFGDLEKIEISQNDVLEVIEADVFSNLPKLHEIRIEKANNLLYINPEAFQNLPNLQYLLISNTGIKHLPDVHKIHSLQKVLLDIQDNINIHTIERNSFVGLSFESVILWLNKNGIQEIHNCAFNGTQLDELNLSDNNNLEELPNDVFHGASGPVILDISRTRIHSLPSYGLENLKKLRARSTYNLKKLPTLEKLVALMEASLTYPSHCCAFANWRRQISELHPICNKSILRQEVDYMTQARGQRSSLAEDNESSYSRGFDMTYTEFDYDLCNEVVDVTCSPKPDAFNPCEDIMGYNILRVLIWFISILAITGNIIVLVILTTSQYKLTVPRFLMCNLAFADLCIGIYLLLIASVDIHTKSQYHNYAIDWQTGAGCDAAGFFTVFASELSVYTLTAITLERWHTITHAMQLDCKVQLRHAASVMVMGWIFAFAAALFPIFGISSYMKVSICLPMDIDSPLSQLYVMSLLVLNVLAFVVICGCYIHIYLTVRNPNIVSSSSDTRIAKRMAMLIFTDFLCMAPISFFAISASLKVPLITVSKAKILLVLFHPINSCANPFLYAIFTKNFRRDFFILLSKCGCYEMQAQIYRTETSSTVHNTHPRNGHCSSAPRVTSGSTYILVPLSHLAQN

For part of its entries the source gives two or more results. The other results are left out here. An entry can have further records. The values listed for one entry seem to repeat one measurement (runs, samples, wells or individuals).

The test concerns the target human FSH receptor (Homo sapiens, UniProt P23945). Put plainly: hFSHR CHO cAMP assay (rhFSHR-cLUC cells, FSH-stimulated cAMP, radioimmunoassay). Conditions: read-out: EC50 hFSHR CHO cAMP; inhibition of cAMP produced by EC70 dose of FSH (4.85 nM); maximum concentration 50 μM. An excerpt:
Minimum Essential Medium-Alpha (MEM-alpha), fetal bovine serum (FBS), penicillin, streptomycin, geneticin, trypsin-EDTA, Hanks' Balanced Salt Solution (no Calcium chloride, Magnesium chloride, Magnesium sulfate, or phenol red; Ca-Mg free HBSS) were purchased from Gibco BRL (Gaithersburg, Md.). The cells used for the FSH bioassay (rhFSHR-cLUC) were Chinese Hamster Ovary cells (K-1; ATCC) stably transformed with human FSH receptor (pSVK-FSHr) and a cAMP luciferase reporter gene (responsive CGα-180LUC). Follicle Stimulating Hormone (Metrodin; Fertinex) was purchased from Serono, Ltd. (Norwell, Mass.).
The rhFSHR-cLUC cell cultures were maintained in MEM-Alpha supplemented with 10% heat-inactivated FBS (HIFBS), 100 U/ml penicillin, 100 μg/mL streptomycin, and included 0.1 g/L geneticin for stable cell selection.
Forty-eight hours after the cells were plated in sterile 96-well culture plates (Corning, Corning, N.Y.) the spent media was removed and 50 μl assay media (modified growth media with 2% HIFBS) containing 2 mM IBMX (3-isobutyl-1-methyl-xanthine) was added to the cells. […] The amount of cAMP produced was measured by radioimmunoassay in a FlashPlate (DuPont, Boston, Mass.). […] The FlashPlates were sealed, incubated overnight @ room temperature, and counted in a Packard TopCount (Packard Instrument Co., Meriden, Conn.). The cAMP radioimmunoassay results were calculated using DPM conversion and log-logit transformation of % binding (Excel program). […]
For individual experiments, a set of samples were tested including a vehicle control (assay buffer), a reference compound (hFSH) at a range of concentrations designed to elicit a minimal to maximal response, and several concentrations of test compounds together with an EC70 concentration of standard (hFSH challenge). […] The cAMP radioimmunoassay raw data (pmol) were calculated to provide average pmol cAMP produced/ml and the percent inhibition was calculated as shown below. […]
EC50 values were calculated from an analysis of the concentration-inhibition data using a linear analysis of the data transformed to a log-logit format.

With `C[C@@H](CN(CC(=O)NCc1ccc(CN)cc1)S(=O)(=O)c1ccc(-c2ccccc2C(F)(F)F)cc1)c1ccccc1` [420], the concentration giving a half-maximal response (EC50) was 640 nM and 210 nM.
Take `C[C@@H](CN(CC(=O)NCc1ccc(CN)cc1)S(=O)(=O)c1ccc(-c2ccc(Cl)cc2Cl)cc1)c1ccccc1` [429]: the EC50 is 3.03 µM and 770 nM.
Take `Cc1cc(C)c(-c2ccc(S(=O)(=O)N(CC(=O)NCc3ccc(CN)cc3)C[C@H](C)c3ccccc3)cc2)c(C)c1` [463]: the EC50 was 2.14 µM and 580 nM.
